In the supplement of paper PMC5836539:
± gives the standard deviation of the averaged measurements. Most values lie within the scatter of the assay; repeated measurements hardly agree.

Chains of the proteins cited; added tags and fusions are not shown. Lines headed by an entry give the natural chain unless they say otherwise; changes in a name come on top.
UniProt Q96CX2: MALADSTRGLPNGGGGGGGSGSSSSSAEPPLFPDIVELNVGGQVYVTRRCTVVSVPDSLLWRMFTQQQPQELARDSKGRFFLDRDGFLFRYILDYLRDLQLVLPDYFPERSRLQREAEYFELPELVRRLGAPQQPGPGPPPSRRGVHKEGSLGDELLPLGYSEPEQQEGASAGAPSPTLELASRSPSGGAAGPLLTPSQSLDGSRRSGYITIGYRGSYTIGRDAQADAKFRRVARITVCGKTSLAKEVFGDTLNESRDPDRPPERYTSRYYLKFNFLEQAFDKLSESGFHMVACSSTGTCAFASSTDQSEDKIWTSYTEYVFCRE
UniProt P56693: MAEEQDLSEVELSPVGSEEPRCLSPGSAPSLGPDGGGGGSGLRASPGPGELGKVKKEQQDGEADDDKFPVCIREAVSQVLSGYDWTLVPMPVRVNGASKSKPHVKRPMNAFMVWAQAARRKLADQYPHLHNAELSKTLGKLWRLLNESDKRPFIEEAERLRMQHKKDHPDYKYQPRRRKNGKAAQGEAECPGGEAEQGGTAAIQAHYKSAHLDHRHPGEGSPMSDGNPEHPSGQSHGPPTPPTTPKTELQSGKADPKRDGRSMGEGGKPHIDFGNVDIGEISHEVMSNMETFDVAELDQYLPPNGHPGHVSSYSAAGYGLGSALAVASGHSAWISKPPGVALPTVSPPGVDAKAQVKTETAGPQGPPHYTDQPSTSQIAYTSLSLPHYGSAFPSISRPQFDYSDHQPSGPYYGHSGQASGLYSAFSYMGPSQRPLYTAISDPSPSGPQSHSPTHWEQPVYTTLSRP
UniProt Q96B97, whole entry, looked up: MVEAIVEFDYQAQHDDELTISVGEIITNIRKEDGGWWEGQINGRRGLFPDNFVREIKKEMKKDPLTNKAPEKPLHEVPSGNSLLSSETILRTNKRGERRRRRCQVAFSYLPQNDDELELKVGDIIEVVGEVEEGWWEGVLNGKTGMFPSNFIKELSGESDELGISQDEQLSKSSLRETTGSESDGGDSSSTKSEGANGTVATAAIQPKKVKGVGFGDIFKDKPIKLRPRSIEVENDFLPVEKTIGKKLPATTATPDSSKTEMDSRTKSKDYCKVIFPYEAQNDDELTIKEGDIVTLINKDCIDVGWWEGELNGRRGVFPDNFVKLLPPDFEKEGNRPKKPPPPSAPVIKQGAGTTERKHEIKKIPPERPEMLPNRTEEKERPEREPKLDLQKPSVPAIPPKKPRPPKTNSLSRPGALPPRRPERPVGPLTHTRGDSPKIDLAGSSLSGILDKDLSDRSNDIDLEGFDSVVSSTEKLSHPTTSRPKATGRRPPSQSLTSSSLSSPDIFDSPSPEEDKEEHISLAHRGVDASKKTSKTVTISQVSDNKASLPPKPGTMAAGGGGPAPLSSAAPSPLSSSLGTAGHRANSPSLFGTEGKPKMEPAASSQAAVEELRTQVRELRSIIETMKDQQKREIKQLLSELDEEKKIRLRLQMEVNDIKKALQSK
UniProt Q9NTJ3, whole entry, looked up: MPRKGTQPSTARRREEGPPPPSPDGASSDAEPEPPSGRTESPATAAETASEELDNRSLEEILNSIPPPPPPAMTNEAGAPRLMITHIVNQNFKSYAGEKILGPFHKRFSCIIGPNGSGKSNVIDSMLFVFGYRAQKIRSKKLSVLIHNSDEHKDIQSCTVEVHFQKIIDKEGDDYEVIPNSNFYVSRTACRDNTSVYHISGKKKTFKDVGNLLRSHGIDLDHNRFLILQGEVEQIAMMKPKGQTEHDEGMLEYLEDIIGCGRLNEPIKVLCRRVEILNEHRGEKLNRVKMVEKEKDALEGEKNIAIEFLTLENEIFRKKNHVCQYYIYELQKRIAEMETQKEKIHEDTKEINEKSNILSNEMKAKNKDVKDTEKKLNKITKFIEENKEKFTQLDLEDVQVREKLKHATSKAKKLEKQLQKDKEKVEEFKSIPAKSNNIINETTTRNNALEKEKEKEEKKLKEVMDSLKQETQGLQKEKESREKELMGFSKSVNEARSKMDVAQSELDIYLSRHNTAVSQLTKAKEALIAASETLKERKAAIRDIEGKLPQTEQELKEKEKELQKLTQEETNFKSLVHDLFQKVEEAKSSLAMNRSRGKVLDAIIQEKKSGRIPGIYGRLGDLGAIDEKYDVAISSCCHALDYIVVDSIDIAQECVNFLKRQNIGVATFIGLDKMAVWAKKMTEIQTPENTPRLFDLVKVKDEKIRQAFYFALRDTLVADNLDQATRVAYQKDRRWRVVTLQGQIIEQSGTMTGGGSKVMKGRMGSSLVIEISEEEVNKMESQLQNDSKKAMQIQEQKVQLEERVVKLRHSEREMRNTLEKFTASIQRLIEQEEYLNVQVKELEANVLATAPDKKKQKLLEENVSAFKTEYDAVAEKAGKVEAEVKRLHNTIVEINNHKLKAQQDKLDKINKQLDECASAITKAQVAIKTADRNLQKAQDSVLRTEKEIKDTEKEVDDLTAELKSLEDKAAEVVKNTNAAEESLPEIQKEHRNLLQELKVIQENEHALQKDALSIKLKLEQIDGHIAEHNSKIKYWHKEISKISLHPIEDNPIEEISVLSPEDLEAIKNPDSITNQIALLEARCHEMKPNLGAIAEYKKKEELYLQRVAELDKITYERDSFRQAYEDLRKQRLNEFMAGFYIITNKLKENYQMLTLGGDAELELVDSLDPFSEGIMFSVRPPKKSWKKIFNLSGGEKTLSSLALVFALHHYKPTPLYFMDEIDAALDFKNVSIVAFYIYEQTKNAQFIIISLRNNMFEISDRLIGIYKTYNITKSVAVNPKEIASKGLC
UniProt Q9UPN7: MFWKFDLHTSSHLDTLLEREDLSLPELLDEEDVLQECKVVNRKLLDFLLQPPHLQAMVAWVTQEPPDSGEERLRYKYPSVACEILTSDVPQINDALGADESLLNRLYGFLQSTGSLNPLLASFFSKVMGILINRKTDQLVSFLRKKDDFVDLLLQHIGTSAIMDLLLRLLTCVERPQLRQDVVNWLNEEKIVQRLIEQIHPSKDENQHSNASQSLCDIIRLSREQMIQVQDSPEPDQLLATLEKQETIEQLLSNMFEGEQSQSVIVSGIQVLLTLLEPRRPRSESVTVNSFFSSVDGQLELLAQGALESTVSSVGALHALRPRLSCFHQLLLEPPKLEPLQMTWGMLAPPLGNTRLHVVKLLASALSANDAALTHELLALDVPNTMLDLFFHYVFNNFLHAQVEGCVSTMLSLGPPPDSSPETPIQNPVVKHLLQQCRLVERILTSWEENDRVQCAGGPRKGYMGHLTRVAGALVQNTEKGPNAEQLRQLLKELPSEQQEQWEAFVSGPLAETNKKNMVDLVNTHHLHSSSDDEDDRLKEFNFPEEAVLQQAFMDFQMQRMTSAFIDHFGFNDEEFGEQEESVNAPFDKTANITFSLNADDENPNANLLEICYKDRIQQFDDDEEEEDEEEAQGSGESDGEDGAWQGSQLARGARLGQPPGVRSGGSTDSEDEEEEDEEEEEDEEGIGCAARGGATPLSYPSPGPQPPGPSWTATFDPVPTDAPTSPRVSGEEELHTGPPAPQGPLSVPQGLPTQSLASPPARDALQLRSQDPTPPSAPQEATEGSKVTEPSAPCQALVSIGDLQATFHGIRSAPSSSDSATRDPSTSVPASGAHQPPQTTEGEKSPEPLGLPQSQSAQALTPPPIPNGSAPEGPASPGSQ
UniProt O15541: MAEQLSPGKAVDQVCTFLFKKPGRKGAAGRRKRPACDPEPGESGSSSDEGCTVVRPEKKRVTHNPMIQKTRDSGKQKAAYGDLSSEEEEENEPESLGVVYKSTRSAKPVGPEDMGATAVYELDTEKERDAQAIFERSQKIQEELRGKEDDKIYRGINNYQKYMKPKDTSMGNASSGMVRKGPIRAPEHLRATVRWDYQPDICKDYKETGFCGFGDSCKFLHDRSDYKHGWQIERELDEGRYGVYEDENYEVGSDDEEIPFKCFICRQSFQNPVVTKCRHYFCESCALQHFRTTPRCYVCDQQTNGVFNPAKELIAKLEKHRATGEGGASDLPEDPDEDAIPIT
UniProt P50502: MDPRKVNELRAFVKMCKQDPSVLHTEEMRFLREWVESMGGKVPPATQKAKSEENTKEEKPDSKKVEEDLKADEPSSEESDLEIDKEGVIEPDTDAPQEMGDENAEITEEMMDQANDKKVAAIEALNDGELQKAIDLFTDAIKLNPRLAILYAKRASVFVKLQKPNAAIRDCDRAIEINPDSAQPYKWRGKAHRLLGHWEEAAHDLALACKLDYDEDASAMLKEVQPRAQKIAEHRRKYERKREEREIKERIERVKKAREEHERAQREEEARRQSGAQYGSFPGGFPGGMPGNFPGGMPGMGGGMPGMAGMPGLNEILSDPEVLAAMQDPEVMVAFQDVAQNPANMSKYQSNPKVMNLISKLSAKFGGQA
UniProt Q13427: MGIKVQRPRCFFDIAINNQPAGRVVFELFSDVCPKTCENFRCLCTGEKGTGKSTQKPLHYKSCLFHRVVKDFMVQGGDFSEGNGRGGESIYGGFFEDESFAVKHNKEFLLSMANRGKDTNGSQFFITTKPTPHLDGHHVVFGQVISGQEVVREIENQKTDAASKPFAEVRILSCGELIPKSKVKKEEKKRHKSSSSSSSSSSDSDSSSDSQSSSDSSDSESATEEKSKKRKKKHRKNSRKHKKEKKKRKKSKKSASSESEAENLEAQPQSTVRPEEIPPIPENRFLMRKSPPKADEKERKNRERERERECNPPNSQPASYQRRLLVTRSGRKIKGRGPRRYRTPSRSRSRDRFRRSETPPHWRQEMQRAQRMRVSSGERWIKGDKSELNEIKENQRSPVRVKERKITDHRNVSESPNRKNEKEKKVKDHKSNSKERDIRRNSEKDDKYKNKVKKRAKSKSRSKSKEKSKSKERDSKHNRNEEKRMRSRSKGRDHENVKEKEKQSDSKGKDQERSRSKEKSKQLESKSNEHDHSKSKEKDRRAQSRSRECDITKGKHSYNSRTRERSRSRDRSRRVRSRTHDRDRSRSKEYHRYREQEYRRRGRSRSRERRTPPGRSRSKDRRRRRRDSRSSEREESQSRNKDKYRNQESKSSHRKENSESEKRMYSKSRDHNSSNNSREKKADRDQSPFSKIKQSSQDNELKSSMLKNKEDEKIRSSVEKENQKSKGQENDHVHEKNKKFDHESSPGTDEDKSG
UniProt Q9H0E9, whole entry, looked up: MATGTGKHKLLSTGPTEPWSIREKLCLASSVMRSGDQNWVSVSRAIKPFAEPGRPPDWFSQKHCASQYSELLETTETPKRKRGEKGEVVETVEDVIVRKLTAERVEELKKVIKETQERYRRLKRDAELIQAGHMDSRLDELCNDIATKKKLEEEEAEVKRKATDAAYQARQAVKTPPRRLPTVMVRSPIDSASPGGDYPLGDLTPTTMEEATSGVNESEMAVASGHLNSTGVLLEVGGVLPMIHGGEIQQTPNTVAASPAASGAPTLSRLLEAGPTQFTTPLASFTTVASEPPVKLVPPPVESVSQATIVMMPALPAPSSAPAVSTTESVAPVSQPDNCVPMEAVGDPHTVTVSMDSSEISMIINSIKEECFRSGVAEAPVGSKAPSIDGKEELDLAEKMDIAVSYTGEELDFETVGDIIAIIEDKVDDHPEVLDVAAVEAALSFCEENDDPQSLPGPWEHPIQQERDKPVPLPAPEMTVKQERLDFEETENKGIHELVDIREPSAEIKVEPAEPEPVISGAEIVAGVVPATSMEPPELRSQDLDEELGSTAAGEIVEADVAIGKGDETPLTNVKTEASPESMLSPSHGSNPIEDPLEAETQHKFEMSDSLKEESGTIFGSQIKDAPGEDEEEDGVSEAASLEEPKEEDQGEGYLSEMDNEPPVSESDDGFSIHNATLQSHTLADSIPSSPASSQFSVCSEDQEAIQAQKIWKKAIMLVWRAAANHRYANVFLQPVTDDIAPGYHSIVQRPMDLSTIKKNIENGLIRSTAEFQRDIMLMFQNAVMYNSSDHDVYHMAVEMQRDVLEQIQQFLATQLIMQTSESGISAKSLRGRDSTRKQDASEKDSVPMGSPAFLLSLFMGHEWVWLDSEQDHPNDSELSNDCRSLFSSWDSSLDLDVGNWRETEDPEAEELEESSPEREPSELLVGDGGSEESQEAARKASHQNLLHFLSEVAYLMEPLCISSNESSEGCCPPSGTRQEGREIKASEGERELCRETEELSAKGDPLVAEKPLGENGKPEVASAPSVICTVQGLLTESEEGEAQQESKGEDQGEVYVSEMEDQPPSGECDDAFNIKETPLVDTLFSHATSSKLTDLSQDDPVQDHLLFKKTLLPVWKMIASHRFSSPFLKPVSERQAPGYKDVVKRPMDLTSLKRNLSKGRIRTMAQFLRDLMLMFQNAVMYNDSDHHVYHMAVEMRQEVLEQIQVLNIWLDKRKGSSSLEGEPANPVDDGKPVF

These targets were tested with CC[C@@H](C)Nc1cc(C(=O)N[C@H]2C[C@H]3CC[C@@H](C2)N3c2ccc(C(=O)C3CC3)cn2)c(C)cc1C(N)=O [XL888] (assay: phosphopeptide melting temperature shift (XL888 minus DMSO); higher = stabilised by drug treatment). Conditions: 100 µM; treatment time 2 h; layout: intact cells; SK-Mel 28.
Procedure: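 Phospho-TPP in intact SK-Mel 28 cells treated with 100 uM XL888 or DMSO for 2 h, heated at 10 temperatures (37-67 C) for 3 min, soluble fraction TMT10plex-labelled and TiO2 phospho-enriched. Melting curves were fitted per phosphopeptide; the value is the melting point difference (drug minus vehicle) in each of two biological replicates.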

Target	phosphopeptide melting temperature shift
KCTD12 phosphosite_185 (phosphosite position: 185) (UniProt Q96CX2)	0.245 °C
UniProt Q9UMZ2-4_phosphosite_774 (phosphosite position: 774)	0.156 °C
UniProt P56693_phosphosite_244 (phosphosite position: 244)	3.34 ± 1.8 °C
UniProt Q01831-2_phosphosite_846 (phosphosite position: 846)	2.86 °C
LARP1 phosphosite_548 (phosphosite position: 548) (UniProt Q6PKG0)	1.12 ± 0.47 °C
UniProt Q9UGR2-2_phosphosite_223 (phosphosite position: 223)	-0.737 °C
UniProt Q9UBF8-2_phosphosite_496 (phosphosite position: 496)	0.871 °C
UniProt Q8NFC6_phosphosite_482 (phosphosite position: 482)	3.32 ± 1 °C
UniProt Q9NQ55-2_phosphosite_238 (phosphosite position: 238)	-1.85 ± 1.7 °C
UniProt Q96B97-2_phosphosite_474 (phosphosite position: 474)	0.219 ± 0.3 °C
MED1 phosphosite_1479 (phosphosite position: 1479) (UniProt Q15648)	-0.335 ± 0.33 °C
UniProt Q5T4S7-3_phosphosite_1761 (phosphosite position: 1761)	1.11 ± 0.23 °C
UniProt Q9NTJ3-2_phosphosite_28 (phosphosite position: 28)	-1.48 ± 0.69 °C
UniProt Q8WVC0-2_phosphosite_154 (phosphosite position: 154)	1.7 ± 0.71 °C
UniProt Q86UU0-3_phosphosite_116 (phosphosite position: 116)	8.31 °C
UniProt Q6PFW1-7_phosphosite_1085 (phosphosite position: 1085)	0.667 ± 0.53 °C
UniProt Q9NQ55-2_phosphosite_240 (phosphosite position: 240)	-0.212 ± 0.16 °C
UniProt Q9UPN7_phosphosite_530 (phosphosite position: 530)	2.22 ± 1.2 °C
RNF113A phosphosite_84 (phosphosite position: 84) (UniProt O15541)	-0.927 ± 0.83 °C
UniProt Q9UPN3-4_phosphosite_2433 (phosphosite position: 2433)	0.783 ± 0.27 °C
UniProt Q9NWS9_phosphosite_137 (phosphosite position: 137)	2.65 °C
ST13 phosphosite_76 (phosphosite position: 76) (UniProt P50502)	0.23 °C
UniProt Q9NYB9-2_phosphosite_301 (phosphosite position: 301)	2.14 °C
PPIG phosphosite_745 (phosphosite position: 745) (UniProt Q13427)	0.124 ± 1.3 °C
UniProt Q02880-2_phosphosite_1576 (phosphosite position: 1576)	0.905 ± 0.6 °C
GPRASP2 phosphosite_328 (phosphosite position: 328) (UniProt Q96D09)	2.11 °C
UniProt Q7Z6Z7-2_phosphosite_3903 (phosphosite position: 3903)	0.221 ± 0.34 °C
UniProt Q9H0E9-3_phosphosite_128 (phosphosite position: 128)	0.662 ± 3.2 °C

An excerpt of these results, as comma-separated lines:
Target,phosphopeptide melting temperature shift
UniProt Q7Z6Z7-2_phosphosite_3903 (phosphosite position: 3903),0.221 ± 0.34 °C
UniProt Q9H0E9-3_phosphosite_128 (phosphosite position: 128),0.662 ± 3.2 °C
